Data taken from patent publication US20160271086A1, “METHODS AND COMPOSITIONS FOR INDUCING REGULATORY T-CELL GENERATION” (SLOAN-KETTERING INSTITUTE FOR CANCER RESEARCH, priority 2013, published 2016).
“Also recorded” adds a separate entry of the source. For at least one compound, name, drawing or mass did not settle the structure.

Key:
naïve CD4+ T cells [1] = assay: In vitro Foxp3 induction assay: naïve CD4+ T cells co-cultured with DC, CD3 antibody, TGF-β, IL-2; type: cell-based, mouse
Description: For in vitro experiments, CD4+ T cells and CD11c+ dendritic cells were enriched using mouse CD4 (L3T4, Invitrogen) and mouse CD11c (N418, BioLegend) antibodies, respectively, that were biotinylated for use with streptavidin-Dynabeads (Invitrogen). Enriched cells were then sorted on a FACSAria II cell sorter (BD Biosciences) for in vitro assays. Intracellular staining for IL-17, IFN-γ, IL-4, IL-13 and Foxp3 was performed using the Foxp3 staining kit (eBiosciences). Cytokine staining was performed after re-stimulation with CD3 antibody and CD28 antibody (5 μg ml-1 each) in the presence of Golgi-plug (BD Biosciences) for 5 hours. DC were expanded in vivo by subcutaneous injection of B16 melanoma cells secreting FLT3-ligand into the left hind flank of mice as indicated. Once tumors were visible, spleens from injected animals were dissociated in RPMI 1640 medium containing 1.67 U mL-1 liberase TL (Roche) and 50 μg mL-1 DNAse I (Roche) for 20 min at 37° C. with shaking EDTA was then added at a final concentration of 5 mM to stop digestion and the resulting homogenate was processed for CD11c+ cell isolation using the MACS mouse CD11c (N418) purification kit (Miltenyi Biotec). In vitro Foxp3 induction assays were performed by co-culturing DC with 5.5×10^4 CD4+CD44loCD62LhiCD25-naïve T cells in the presence of 1 μg ml-1 of CD3 antibody, 1 ng mL-1 TGF-β, and 100 U ml-1 IL-2, in 96-well flat-bottom plates for 4 d. For Foxp3 induction in the presence of butyrate- or TSA-pretreated DC, TGF-β was used at 0.1 ng mL-1 final concentration. In vitro induction assays in the absence of DC were performed by incubating 5.5×10^4 naïve CD4+ T cells with 1 ng mL-1 TGF-β, 100 U ml-1 IL-2, and a 1:1 cell-to-bead ratio of CD3/CD28 T activator Dynabeads (Invitrogen). […] Proliferation of T cells was assessed by [3H]-thymidine incorporation during the final 8 h of culture.

naïve CD4+ T cells [2] = assay: In vitro Foxp3 induction in the absence of DC (CD3/CD28 antibody-coated beads, TGF-β); type: cell-based, mouse; details: vs butyrate-free cultures
Description: (§1) In vitro Foxp3 induction assays were performed by co-culturing DC with 5.5×10^4 CD4+CD44loCD62LhiCD25-naïve T cells in the presence of 1 μg ml-1 of CD3 antibody, 1 ng mL-1 TGF-β, and 100 U ml-1 IL-2, in 96-well flat-bottom plates for 4 d. For Foxp3 induction in the presence of butyrate- or TSA-pretreated DC, TGF-β was used at 0.1 ng mL-1 final concentration. In vitro induction assays in the absence of DC were performed by incubating 5.5×10^4 naïve CD4+ T cells with 1 ng mL-1 TGF-β, 100 U ml-1 IL-2, and a 1:1 cell-to-bead ratio of CD3/CD28 T activator Dynabeads (Invitrogen). For in vitro suppression assays, 4×10^4 naïve CD4+ T cells were FACS-sorted from B6 mice and cultured with graded numbers of CD4+Foxp3+ Treg cells FACS-sorted from Foxp3GFP mice treated with antibiotics and with or without butyrate, in the presence of […] irradiated T cell-depleted splenocytes and 1 μg ml-1 CD3 antibody in a 96-well round-bottom plate for 80 h. Proliferation of T cells was assessed by [3H]-thymidine incorporation during the final 8 h of culture.

Flt3L-elicited DC = assay: Foxp3 induction by DC pre-treated with SCFA or TSA for 6 h, washed, co-cultured with naïve CD4+ T cells; type: cell-based, mouse
Description: DC were expanded in vivo by subcutaneous injection of B16 melanoma cells secreting FLT3-ligand into the left hind flank of mice as indicated. Once tumors were visible, spleens from injected animals were dissociated in RPMI 1640 medium containing 1.67 U mL-1 liberase TL (Roche) and 50 μg mL-1 DNAse I (Roche) for 20 min at 37° C. with shaking EDTA was then added at a final concentration of 5 mM to stop digestion and the resulting homogenate was processed for CD11c+ cell isolation using the MACS mouse CD11c (N418) purification kit (Miltenyi Biotec).
as §1

Foxp3+ Treg cells [3] = assay: SCFA in drinking water to AVNM-treated mice, flow cytometric analysis of Foxp3+ Treg cell subsets; type: in vivo
Excerpt: Fox[…] (CNS1 knockout), Foxp3GFP, Foxp3Thy1.1 and Gpr109a-/- mice were used in the experiments as previously described (Zheng. Y. et al. Nature, 2010, 463, 808-12; Fontenot, J. D. et al. Immunity, 2005, 22, 329-41; Kim, J. M., et al. Nat Immunol, 2007, 8, 191-7). Male C57BL/6 (B6) mice were purchased from the Jackson Laboratory and groups of 5 co-housed mice were randomly assigned to treatment vs. control groups after confirmation that age and weight were in accordance between groups. Male mice were used for all experiments. All strains were maintained in the Sloan-Kettering Institute animal facility in accordance with institutional guidelines. Mice were sacrificed by CO2 asphyxiation then blindly processed for tissue harvest thereafter. For antibiotic treatment, mice at 5-6 weeks of age were treated with 1 g L-1 metronidazole (Sigma-Aldrich), 0.5 g L-1 vancomycin (Hospira), 1 g L-1 ampicillin (Sigma-Aldrich) and 1 g L-1 kanamycin (Fisher Scientific) dissolved in drinking water. […] Butyrate was administered to mice after prior treatment with antibiotics for at least 1 week. For in vitro experiments, CD4+ T cells and CD11c+ dendritic cells were enriched using mouse CD4 (L3T4, Invitrogen) and mouse CD11c (N418, BioLegend) antibodies, respectively, that were biotinylated for use with streptavidin-Dynabeads (Invitrogen). Enriched cells were then sorted on a FACSAria II cell sorter (BD Biosciences) for in vitro assays. Intracellular staining for IL-17, IFN-γ, IL-4, IL-13 and Foxp3 was performed using the Foxp3 staining kit (eBiosciences). Cytokine staining was performed after re-stimulation with CD3 antibody and CD28 antibody (5 μg ml-1 each) in the presence of Golgi-plug (BD Biosciences) for 5 hours.

Foxp3− CD4+ T cells = assay: Cytokine production by ex vivo isolated Foxp3- CD4+ T cells of butyrate-treated mice; details: butyrate in drinking water, AVNM-treated mice
Foxp3+ Treg cells [4] = assay: Butyrate enemas, Treg cell subset in colonic lamina propria; type: in vivo, mice; details: enema into the colon
Foxp3 protein = Foxp3 protein acetylation, AVI-tagged Foxp3-expressing TCli hybridoma cells, immunoprecipitation and immunoblot; type: cell-based; details: 15 h butyrate
Treg cells = assay: In vitro suppression assay of Treg cells from treated mice; type: cell-based; details: AVNM and butyrate vs AVNM alone
LPS response genes = assay: Gene expression in DC (microarray, Relb qPCR); type: cell-based, mouse
Description: FIG. 4 depicts HDAC-inhibitory activity of butyrate decreases pro-inflammatory cytokine expression within DC to promote Treg induction: A) Histone acetylation in Flt3L-elicited DC from B6 mice treated with the indicated SCFA (500 μM) or TSA (10 nM) for 6 h followed by acid extraction of histones from isolated nuclei, SDS-PAGE and blotting with antibody for pan-acetylated H3. Total histone H3 served as a loading control; B) Induction of Foxp3 expression upon stimulation of naïve CD4+ T cells by CD3 antibody in the presence of SCFA or TSA, Flt3L-elicited DC and TGF-β; C) RelB gene expression quantified by qPCR in purified Flt3L-elicited DC from B6 mice treated for 6 h with SCFA or TSA, as in (A); and D) RelB gene expression quantified by qPCR in purified Flt3L-elicited DC from B6 mice treated with or without TSA in combination with, or in the absence of, butyrate at the indicated concentrations.
The data are shown as percent of CD4+ cells expressing Foxp3 after 4 days of culture. Data are representative of 2 independent experiments; error bars denote SEM.

Foxp3 mRNA = Foxp3 mRNA expression (qPCR, Thy1.1 reporter) in Foxp3+ cells; type: cell-based, mice; details: presence or absence of butyrate
[5] = butyrate combined with optimal amounts of TSA

For `CCCC(=O)O` [butyrate], the “Foxp3 induction in naïve CD4+ T cells in the absence of CNS1” value (naïve CD4+ T cells [1]; CNS1-deficient naïve CD4+ T cells) was “failed to rescue”, the “TGF-β dependence of Foxp3 induction” value (naïve CD4+ T cells [1]; CNS1-sufficient CD4+ T cells) was “did not diminish” and the “TGF-β-dependent generation of Foxp3+ cells in vitro” value (naïve CD4+ T cells [1]; purified SCFA) was “augmented”. For the same compound, the “amounts of Foxp3 protein on a per-cell basis in Treg cells generated in vitro” value (naïve CD4+ T cells [2]) was “higher”, the “ability of pre-treated DCs to induce Foxp3 expression in naïve CD4+ T cells” value (Flt3L-elicited DC; DC pre-treated 6 h, then agent removed) was “markedly enhanced; also recorded: potently induced; also recorded: sufficient to increase” and the “in vitro generation of Foxp3+ cells by Gpr109a+/+ and Gpr109a−/− DCs” value (Flt3L-elicited DC; DC pre-treated with butyrate) was “similarly increased”. For the same compound, the “Foxp3 induction by TSA-treated DC, further enhancement” value (Flt3L-elicited DC; [5]) was “unable to further enhance”, the “Foxp3 protein expression induced by butyrate-pretreated vs control DCs” value (Flt3L-elicited DC; per-cell basis) was “comparable” and the “intracellular Foxp3 protein amounts on a per cell basis” value (Foxp3+ Treg cells [3]; AVNM-treated CNS1-sufficient and -deficient mice) was “increased”. For the same compound, the “colonic Treg cells (accumulation of Treg cells in the colon)” value (Foxp3+ Treg cells [3]; SCFA in drinking water, AVNM-treated mice) was “not”, the “proportion or absolute numbers of Treg cells in CNS1-deficient mice” value (Foxp3+ Treg cells [3]; drinking water, AVNM-treated CNS1-deficient mice) was “did not increase” and the “thymic Treg cells” value (Foxp3+ Treg cells [3]; drinking water, AVNM-treated mice) was “not”. The “peripheral Treg cells” value (Foxp3+ Treg cells [3]; drinking water, AVNM-treated mice, spleen and lymph nodes) was “robust increase; also recorded: increasing”, the “production of Th1, Th2, and Th17 cytokines by Foxp3− CD4+ T cells” value (Foxp3− CD4+ T cells) was “remained unchanged; also recorded: not increased” and the “Treg cell subset in the colonic lamina propria” value (Foxp3+ Treg cells [4]; CNS1-deficient mice) was “not”. The “Treg cell subset in the colonic lamina propria” value (Foxp3+ Treg cells [4]; CNS1-sufficient mice) was “increase”, the Foxp3 protein acetylation (Foxp3 protein) was “increased” and the “suppressor activity of Treg cells isolated from treated mice” value (Treg cells) was “moderately enhanced”. The “down-regulation of Relb by TSA, further enhancement” value (LPS response genes; [5]) was “unable to further enhance”, the “expression of LPS response genes including 1112, 116, and Relb in DCs” value (LPS response genes; microarray, 6 h) was “systemic repression” and the “Foxp3 mRNA levels in Foxp3+ cells” value (Foxp3 mRNA) was “not associated with increased; also recorded: not different”.
